Laboratory results: the supplement of paper PMC11006884
The list shows a part of the results, in another mix than the full data. This is a noisy data set.

By UniProt entry, the sequences of proteins in these tests, tags left out. Where a name states a change or a piece, a line headed by the entry shows the natural chain unless it says otherwise.
UniProt P38646: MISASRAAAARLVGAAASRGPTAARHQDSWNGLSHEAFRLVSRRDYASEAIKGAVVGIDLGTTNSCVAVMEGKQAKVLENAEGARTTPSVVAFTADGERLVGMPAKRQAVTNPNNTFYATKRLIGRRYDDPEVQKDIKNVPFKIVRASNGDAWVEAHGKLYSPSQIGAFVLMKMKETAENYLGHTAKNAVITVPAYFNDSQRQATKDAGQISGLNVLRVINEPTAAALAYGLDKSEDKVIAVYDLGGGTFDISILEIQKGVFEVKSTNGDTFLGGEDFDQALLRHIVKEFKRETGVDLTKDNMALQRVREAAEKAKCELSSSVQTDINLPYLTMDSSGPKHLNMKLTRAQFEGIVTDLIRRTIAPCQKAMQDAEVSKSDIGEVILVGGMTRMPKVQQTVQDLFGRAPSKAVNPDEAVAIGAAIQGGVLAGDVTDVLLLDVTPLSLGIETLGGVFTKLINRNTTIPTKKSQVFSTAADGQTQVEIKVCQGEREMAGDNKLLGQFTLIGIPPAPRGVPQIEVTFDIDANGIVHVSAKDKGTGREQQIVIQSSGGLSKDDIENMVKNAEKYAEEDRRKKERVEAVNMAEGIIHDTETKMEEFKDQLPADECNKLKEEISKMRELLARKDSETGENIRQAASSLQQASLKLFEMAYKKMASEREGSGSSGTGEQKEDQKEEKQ
UniProt P31943: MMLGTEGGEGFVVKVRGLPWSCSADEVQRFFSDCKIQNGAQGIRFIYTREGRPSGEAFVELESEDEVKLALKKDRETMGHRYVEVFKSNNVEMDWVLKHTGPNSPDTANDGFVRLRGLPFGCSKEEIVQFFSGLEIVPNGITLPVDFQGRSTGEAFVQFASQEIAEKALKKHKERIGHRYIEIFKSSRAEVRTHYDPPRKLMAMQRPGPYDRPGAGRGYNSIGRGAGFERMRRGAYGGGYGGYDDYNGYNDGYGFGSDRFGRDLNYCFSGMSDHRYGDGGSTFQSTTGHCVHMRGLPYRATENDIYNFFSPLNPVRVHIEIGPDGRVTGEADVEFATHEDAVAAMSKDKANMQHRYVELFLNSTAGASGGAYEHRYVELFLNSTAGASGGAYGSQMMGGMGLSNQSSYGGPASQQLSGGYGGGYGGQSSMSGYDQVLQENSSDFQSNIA
UniProt P41252: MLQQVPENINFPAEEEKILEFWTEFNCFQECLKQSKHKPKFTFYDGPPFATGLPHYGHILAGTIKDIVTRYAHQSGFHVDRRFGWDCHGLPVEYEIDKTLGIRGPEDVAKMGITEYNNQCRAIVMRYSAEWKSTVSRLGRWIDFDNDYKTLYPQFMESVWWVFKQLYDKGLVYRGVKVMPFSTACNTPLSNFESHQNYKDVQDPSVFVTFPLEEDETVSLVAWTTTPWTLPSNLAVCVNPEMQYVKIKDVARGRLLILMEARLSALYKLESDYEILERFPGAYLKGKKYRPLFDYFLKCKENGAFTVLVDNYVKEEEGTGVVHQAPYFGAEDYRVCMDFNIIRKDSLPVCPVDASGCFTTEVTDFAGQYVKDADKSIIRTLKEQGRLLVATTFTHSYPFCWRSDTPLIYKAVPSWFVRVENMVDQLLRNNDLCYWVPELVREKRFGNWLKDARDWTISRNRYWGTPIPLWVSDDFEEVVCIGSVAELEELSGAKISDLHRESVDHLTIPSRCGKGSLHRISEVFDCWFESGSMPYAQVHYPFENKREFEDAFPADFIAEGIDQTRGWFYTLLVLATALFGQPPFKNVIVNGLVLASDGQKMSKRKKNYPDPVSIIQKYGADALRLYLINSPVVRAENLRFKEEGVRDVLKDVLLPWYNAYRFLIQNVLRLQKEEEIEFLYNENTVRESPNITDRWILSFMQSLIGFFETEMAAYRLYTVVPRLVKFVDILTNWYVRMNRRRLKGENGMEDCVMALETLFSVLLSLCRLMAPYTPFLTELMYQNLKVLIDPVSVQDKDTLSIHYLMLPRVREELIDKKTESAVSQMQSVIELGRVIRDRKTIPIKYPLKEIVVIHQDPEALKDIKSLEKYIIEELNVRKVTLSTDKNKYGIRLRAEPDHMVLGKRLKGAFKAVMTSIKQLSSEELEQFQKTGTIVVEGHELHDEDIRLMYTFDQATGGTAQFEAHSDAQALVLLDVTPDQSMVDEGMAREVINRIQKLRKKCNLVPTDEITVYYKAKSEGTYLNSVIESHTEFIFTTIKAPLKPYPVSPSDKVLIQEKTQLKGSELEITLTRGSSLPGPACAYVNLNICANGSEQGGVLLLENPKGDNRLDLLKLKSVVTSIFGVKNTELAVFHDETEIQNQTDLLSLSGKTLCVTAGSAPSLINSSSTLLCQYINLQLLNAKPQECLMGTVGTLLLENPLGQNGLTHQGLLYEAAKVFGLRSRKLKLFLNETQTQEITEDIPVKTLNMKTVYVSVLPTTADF
UniProt P40938, whole entry, looked up: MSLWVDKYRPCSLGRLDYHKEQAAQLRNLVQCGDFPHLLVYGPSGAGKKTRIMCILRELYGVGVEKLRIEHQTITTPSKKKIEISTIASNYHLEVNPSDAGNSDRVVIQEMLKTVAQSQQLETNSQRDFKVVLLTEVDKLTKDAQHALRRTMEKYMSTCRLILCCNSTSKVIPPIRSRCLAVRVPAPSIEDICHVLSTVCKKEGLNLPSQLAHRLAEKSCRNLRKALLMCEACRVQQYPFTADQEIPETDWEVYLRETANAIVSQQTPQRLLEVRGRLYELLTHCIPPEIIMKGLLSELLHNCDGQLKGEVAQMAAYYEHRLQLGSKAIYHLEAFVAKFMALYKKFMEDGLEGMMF
UniProt P37198: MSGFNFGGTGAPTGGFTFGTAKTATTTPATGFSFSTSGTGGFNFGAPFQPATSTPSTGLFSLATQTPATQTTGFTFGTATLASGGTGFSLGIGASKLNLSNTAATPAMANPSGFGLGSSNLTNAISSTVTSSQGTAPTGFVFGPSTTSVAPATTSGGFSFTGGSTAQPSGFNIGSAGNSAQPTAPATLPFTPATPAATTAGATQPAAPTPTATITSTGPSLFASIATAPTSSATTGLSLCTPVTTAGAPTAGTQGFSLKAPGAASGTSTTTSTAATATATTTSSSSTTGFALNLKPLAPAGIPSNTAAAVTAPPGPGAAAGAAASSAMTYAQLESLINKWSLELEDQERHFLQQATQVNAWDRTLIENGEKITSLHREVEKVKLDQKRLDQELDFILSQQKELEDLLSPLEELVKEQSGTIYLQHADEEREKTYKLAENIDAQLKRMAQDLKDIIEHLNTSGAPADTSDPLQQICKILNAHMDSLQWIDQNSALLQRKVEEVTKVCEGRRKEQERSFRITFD
UniProt P31040: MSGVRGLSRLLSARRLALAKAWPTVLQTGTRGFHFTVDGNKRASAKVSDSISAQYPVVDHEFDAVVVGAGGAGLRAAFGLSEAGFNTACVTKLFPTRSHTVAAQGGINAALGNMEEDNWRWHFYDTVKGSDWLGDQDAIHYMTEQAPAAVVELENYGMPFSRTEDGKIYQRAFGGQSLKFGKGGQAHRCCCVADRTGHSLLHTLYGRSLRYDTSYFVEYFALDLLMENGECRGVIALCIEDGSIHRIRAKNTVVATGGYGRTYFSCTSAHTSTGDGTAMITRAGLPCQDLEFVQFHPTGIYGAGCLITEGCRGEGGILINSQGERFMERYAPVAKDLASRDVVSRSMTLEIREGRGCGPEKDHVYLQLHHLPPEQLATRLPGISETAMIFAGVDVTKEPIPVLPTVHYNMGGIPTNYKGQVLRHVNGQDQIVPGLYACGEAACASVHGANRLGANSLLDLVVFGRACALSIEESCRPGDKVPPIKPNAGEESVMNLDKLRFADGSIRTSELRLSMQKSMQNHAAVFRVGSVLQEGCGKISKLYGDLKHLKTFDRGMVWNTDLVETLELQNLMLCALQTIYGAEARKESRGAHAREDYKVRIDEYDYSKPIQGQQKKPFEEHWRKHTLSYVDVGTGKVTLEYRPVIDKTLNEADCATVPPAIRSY
UniProt P35611: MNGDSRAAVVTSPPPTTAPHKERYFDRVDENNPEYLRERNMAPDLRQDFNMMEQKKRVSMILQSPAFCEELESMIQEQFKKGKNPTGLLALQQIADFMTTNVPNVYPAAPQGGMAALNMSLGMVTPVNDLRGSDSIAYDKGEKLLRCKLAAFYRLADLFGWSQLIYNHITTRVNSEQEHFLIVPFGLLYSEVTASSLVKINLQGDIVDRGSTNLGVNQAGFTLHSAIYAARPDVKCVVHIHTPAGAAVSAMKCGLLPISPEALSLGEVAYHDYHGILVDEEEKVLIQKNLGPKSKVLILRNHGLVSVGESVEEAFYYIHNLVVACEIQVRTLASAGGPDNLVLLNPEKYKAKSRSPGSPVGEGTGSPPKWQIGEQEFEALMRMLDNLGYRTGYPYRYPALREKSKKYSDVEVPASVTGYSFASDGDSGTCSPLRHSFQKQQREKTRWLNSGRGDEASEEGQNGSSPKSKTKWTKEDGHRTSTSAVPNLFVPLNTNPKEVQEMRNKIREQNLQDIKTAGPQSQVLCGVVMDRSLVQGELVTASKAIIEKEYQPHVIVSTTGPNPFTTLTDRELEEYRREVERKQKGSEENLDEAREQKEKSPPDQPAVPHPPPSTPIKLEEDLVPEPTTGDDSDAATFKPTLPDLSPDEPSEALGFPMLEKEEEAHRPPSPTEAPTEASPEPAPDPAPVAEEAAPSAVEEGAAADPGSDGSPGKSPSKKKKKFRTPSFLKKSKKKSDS
UniProt P30101, whole entry, looked up: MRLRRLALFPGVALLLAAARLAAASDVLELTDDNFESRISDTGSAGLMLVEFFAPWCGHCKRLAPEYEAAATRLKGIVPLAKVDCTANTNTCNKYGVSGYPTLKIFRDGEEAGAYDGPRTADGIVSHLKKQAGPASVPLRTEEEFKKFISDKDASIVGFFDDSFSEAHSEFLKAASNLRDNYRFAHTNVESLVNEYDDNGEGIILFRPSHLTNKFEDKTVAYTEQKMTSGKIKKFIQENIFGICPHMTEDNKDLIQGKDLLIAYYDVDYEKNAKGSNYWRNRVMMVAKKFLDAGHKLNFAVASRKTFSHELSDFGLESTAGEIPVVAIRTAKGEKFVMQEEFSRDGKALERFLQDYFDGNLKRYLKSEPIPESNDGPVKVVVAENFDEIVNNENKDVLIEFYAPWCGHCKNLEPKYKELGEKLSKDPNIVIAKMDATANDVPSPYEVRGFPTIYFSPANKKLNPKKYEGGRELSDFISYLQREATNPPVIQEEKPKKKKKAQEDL
UniProt P35250, whole entry, looked up: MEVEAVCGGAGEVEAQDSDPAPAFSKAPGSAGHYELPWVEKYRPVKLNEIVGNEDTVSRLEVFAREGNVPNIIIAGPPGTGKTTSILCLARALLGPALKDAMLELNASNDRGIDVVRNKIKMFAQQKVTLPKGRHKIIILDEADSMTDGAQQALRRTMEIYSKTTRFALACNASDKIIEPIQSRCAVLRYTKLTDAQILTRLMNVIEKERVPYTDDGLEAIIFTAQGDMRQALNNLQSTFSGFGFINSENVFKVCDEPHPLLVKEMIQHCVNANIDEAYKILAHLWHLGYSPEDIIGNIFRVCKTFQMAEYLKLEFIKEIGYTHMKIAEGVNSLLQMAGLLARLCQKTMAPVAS
UniProt P33176: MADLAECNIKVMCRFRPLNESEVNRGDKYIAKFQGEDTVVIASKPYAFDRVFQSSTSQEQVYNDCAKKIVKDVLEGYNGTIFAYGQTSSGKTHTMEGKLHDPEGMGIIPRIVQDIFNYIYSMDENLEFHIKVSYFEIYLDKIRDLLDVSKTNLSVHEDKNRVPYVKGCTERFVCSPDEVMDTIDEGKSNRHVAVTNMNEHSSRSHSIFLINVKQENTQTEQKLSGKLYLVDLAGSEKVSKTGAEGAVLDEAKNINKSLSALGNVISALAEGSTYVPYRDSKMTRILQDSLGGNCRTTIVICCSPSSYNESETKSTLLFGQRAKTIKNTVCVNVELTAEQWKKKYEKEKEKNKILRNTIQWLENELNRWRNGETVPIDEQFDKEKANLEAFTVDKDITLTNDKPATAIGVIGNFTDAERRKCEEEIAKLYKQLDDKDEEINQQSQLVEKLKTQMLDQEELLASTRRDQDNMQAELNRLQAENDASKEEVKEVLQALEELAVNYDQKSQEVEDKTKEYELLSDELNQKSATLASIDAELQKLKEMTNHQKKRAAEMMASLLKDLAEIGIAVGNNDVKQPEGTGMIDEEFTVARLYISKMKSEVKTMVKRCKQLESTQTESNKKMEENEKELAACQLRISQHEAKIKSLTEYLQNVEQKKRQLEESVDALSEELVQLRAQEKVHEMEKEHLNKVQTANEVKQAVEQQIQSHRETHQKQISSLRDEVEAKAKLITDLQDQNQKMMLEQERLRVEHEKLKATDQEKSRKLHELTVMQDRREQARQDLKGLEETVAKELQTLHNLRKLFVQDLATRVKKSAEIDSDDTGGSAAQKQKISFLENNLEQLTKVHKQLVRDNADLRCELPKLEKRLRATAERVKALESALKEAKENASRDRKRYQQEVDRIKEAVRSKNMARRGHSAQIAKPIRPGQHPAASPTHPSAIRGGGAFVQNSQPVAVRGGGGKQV

compound: COC(=O)/C=C/c1ccccc1 [methyl cinnamate]; test: log2 ratio of iodoacetamide-alkyne labeling of the cysteine site, DMSO over compound (competition); higher = stronger covalent engagement of the cysteine by the compound, active = 1 or more; details: 500 µM; treatment time 1 h; system: HEK293T cell lysate
How it was run: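 Three replicates, each with duplicate channels, were prepared from HEK293T lysate (2 mg/mL) treated with vehicle or electrophile at 500 µM for 1 h at ambient temperature. Iodoacetamide alkyne was then applied for 1 h, and samples were clicked to sCIP-TMT reagents, pooled, trypsin-digested overnight at 37 °C, enriched on streptavidin, acid-eluted and analysed on Orbitrap Eclipse LC-MS/MS with FAIMS, with FragPipe quantification. The log2 competition ratio per cysteine is the mean control-channel divided by the mean compound-channel reporter intensity. Cysteines quantified in only one replicate were left out.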

log2 ratio of iodoacetamide-alkyne labeling, inactive:
PPP1CC C105 (UniProt P36873) 0.0212, HSPA9 C366 (UniProt P38646) 0.236, HNRNPH1 C22 (UniProt P31943) 0.0581, PPP1CC C62 (UniProt P36873) 0.353, LRPPRC C130 (UniProt P42704) 0.284, IARS C526 (UniProt P41252) 0.00788, PSMC2 C270 (UniProt P35998) -0.0297, RFC3 C32 (UniProt P40938) 0.106, NUP62 C506 (UniProt P37198) 0.24, SDHA C89 (UniProt P31040) -0.0124, HNRNPH1 C34 (UniProt P31943) 0.13, ADD1 C253 (UniProt P35611) -0.0653, PDIA3 C244 (UniProt P30101) 0.0791, RFC2 C255 (UniProt P35250) -0.0024, KIF5B C858 (UniProt P33176) 0.463, RPL4 C208 (UniProt P36578) 0.117
